Experimental data from paper PMC11705627.
These are yes or no findings as the source states them, for the method shown. In cells and extracts the contact can be indirect. Some binding calls cover weakened binding; strength is not graded here.

Target: T1, interferon regulatory factor 9 (human (endogenous in CAL27 and SCC25)), Q00978
T1 chain: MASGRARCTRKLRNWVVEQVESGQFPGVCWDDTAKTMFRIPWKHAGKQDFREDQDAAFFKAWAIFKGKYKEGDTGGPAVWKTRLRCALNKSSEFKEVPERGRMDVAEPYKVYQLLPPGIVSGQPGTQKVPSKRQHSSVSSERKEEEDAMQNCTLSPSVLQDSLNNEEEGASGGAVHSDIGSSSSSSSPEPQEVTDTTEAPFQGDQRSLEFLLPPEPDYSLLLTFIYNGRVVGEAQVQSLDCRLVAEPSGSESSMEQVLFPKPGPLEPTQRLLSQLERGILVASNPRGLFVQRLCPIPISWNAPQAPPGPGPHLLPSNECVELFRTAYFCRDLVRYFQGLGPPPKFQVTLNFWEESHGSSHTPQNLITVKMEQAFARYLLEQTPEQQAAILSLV
Test: co-IP; lysates of CAL27 and SCC25 cells transfected with Si FAT1 or control siRNAs, with or without CaMKII knockdown, lysed 0.5 h on ice; IP with anti-IRF9 antibody or control IgG at 4 °C overnight, protein A/G magnetic beads 1 h at room temperature; western blot for p-STAT1
Conditions: remark: other sources report otherwise

binding: binds
B1: phosphorylated STAT1, P42224 1-750 (protein)
chain: MSQWYELQQLDSKFLEQVHQLYDDSFPMEIRQYLAQWLEKQDWEHAANDVSFATIRFHDLLSQLDDQYSRFSLENNFLLQHNIRKSKRNLQDNFQEDPIQMSMIIYSCLKEERKILENAQRFNQAQSGNIQSTVMLDKQKELDSKVRNVKDKVMCIEHEIKSLEDLQDEYDFKCKTLQNREHETNGVAKSDQKQEQLLLKKMYLMLDNKRKEVVHKIIELLNVTELTQNALINDELVEWKRRQQSACIGGPPNACLDQLQNWFTIVAESLQQVRQQLKKLEELEQKYTYEHDPITKNKQVLWDRTFSLFQQLIQSSFVVERQPCMPTHPQRPLVLKTGVQFTVKLRLLVKLQELNYNLKVKVLFDKDVNERNTVKGFRKFNILGTHTKVMNMEESTNGSLAAEFRHLQLKEQKNAGTRTNEGPLIVTEELHSLSFETQLCQPGLVIDLETTSLPVVVISNVSQLPSGWASILWYNMLVAEPRNLSFFLTPPCARWAQLSEVLSWQFSSVTKRGLNVDQLNMLGEKLLGPNASPDGLIPWTRFCKENINDKNFPFWLWIESILELIKKHLLPLWNDGCIMGFISKERERALLKDQQPGTFLLRFSESSREGAITFTWVERSQNGGEPDFHAVEPYTKKELSAVTFPDIIRNYKVMAAENIPENPLKYLYPNIDKDHAFGKYYSRPKEAPEPMELDGPKGTGYIKTELISVSEVHPSRLQTTDNLLPMSPEEFDEVSRIVGSVEFDSMMNTV
modifications: here or on the partner: phosphorylated (p-STAT1; site not stated)
